The values that follow come from publication PMC3663554.

Sequences of proteins named here, by UniProt entry; tags and fusion partners are left off.
UniProt Q8WW43: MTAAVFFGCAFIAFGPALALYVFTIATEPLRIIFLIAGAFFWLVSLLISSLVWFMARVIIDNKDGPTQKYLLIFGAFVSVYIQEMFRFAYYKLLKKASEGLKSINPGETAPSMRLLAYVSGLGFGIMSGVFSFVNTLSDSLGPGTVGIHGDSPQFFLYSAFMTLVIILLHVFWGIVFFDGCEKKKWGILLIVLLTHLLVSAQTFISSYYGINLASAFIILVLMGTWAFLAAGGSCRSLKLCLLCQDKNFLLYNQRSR
UniProt P08962: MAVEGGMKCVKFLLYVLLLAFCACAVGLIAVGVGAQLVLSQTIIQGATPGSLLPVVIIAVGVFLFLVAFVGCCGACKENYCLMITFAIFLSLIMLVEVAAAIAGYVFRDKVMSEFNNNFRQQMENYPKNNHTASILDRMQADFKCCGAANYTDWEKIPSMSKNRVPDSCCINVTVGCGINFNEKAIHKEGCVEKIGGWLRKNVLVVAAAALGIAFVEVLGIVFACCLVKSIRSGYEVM
UniProt P35222: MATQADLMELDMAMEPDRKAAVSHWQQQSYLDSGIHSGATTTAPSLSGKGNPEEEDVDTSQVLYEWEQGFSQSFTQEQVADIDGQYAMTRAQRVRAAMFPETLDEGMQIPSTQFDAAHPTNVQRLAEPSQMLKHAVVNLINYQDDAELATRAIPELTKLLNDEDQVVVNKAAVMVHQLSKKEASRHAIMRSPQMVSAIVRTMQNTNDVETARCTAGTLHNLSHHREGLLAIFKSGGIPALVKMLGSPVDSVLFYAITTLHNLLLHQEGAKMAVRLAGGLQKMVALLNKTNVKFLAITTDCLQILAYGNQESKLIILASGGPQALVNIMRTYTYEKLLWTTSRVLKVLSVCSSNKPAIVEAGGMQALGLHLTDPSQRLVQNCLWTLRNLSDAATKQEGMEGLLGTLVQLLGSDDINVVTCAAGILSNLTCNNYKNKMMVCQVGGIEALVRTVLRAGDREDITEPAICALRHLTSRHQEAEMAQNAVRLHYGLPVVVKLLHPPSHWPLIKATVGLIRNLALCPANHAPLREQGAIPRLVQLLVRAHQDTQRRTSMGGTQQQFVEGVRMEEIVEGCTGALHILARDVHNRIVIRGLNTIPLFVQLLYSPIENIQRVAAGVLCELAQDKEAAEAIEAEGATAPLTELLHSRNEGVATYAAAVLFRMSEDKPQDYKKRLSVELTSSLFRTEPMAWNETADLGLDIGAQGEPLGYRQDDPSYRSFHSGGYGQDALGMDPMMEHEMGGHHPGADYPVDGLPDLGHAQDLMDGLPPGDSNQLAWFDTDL

No constants are given. Whether binding was seen depends on the method and setting. Binding seen in cells or lysates may run through a third protein. A yes stands for co-enrichment or nearness to the bait. Other partners may have been found. No binding means not detected with the bait.

This experiment addresses TAP-PS2 (human presenilin 2 with N-terminal Protein G-TEV-SBP tandem affinity purification tag) (human) (UniProt P49810). Briefly: affinity purification with mass spectrometry; TAP purification from HEK293F (IgG resin, TEV cleavage, WGA resin, streptavidin resin, biotin elution; CHAPSO/DDM); eluates trypsinized in solution; iTRAQ114 PS1 negative control, 115 PS1, 116 PS2 negative control, 117 PS2; control: biotin-saturated streptavidin resin.

Turning to Aph-1B (from UniProt Q8WW43 1-257), the binding entry is reported as “binds”. Then CD63 (from UniProt P08962 1-238), with “binds”; and “β-catenin (HEK293) (from UniProt P35222 1-781)”, with “no binding”.

B1: signal peptide peptidase (SPP) (enzyme, UniProt Q8TCT9 1-377)
chain: MDSALSDPHNGSAEAGGPTNSTTRPPSTPEGIALAYGSLLLMALLPIFFGALRSVRCARGKNASDMPETITSRDAARFPIIASCTLLGLYLFFKIFSQEYINLLLSMYFFVLGILALSHTISPFMNKFFPASFPNRQYQLLFTQGSGENKEEIINYEFDTKDLVCLGLSSIVGVWYLLRKHWIANNLFGLAFSLNGVELLHLNNVSTGCILLGGLFIYDVFWVFGTNVMVTVAKSFEAPIKLVFPQDLLEKGLEANNFAMLGLGDVVIPGIFIALLLRFDISLKKNTHTYFYTSFAAYIFGLGLTIFIMHIFKHAQPALLYLVPACIGFPVLVALAKGEVTEMFSYEESNPKDPAAVTESKEGTEASASKGLEKKEK
In the case of B1, the binding result is given as “binds”.

B2: catenin δ-1 (protein, UniProt O60716 1-968)
chain: MDDSEVESTASILASVKEQEAQFEKLTRALEEERRHVSAQLERVRVSPQDANPLMANGTLTRRHQNGRFVGDADLERQKFSDLKLNGPQDHSHLLYSTIPRMQEPGQIVETYTEEDPEGAMSVVSVETSDDGTTRRTETTVKKVVKTVTTRTVQPVAMGPDGLPVDASSVSNNYIQTLGRDFRKNGNGGPGPYVGQAGTATLPRNFHYPPDGYSRHYEDGYPGGSDNYGSLSRVTRIEERYRPSMEGYRAPSRQDVYGPQPQVRVGGSSVDLHRFHPEPYGLEDDQRSMGYDDLDYGMMSDYGTARRTGTPSDPRRRLRSYEDMIGEEVPSDQYYWAPLAQHERGSLASLDSLRKGGPPPPNWRQPELPEVIAMLGFRLDAVKSNAAAYLQHLCYRNDKVKTDVRKLKGIPVLVGLLDHPKKEVHLGACGALKNISFGRDQDNKIAIKNCDGVPALVRLLRKARDMDLTEVITGTLWNLSSHDSIKMEIVDHALHALTDEVIIPHSGWEREPNEDCKPRHIEWESVLTNTAGCLRNVSSERSEARRKLRECDGLVDALIFIVQAEIGQKDSDSKLVENCVCLLRNLSYQVHREIPQAERYQEAAPNVANNTGPHAASCFGAKKGKDEWFSRGKKPIEDPANDTVDFPKRTSPARGYELLFQPEVVRIYISLLKESKTPAILEASAGAIQNLCAGRWTYGRYIRSALRQEKALSAIADLLTNEHERVVKAASGALRNLAVDARNKELIGKHAIPNLVKNLPGGQQNSSWNFSEDTVISILNTINEVIAENLEAAKKLRETQGIEKLVLINKSGNRSEKEVRAAALVLQTIWGYKELRKPLEKEGWKKSDFQVNLNNASRSQSSHSYDDSTLPLIDRNQKSDKKPDREEIQMSNMGSNTKSLDNNYSTPNERGDHNRTLDRSGDLGDMEPLKGTTPLMQDEGQESLEEELDVLVLDDEGGQVSYPSMQKI
With B2, the binding entry was “no binding”.

B3: Tmp21 (protein, UniProt P49755 32-219)
chain: ISFHLPINSRKCLREEIHKDLLVTGAYEISDQSGGAGGLRSHLKITDSAGHILYSKEDATKGKFAFTTEDYDMFEVCFESKGTGRIPDQLVILDMKHGVEAKNYEEIAKVEKLKPLEVELRRLEDLSESIVNDFAYMKKREEEMRDTNESTNTRVLYFSIFSMFCLIGLATWQVFYLRRFFKAKKLIE
Take B3: the binding result was “binds”.
